Reference: paper PMC12543377, “https://orcid.org/0000-0003-0166-1786 Gustavsson Emil Data curation Formal analysis Investigation Methodology Project administration Validation Visualization Writing - original draft Writing - review”
These are yes or no findings as the source states them, for the method shown.

The chains behind the UniProt entries cited, without tags or fusion partners.
UniProt P10193: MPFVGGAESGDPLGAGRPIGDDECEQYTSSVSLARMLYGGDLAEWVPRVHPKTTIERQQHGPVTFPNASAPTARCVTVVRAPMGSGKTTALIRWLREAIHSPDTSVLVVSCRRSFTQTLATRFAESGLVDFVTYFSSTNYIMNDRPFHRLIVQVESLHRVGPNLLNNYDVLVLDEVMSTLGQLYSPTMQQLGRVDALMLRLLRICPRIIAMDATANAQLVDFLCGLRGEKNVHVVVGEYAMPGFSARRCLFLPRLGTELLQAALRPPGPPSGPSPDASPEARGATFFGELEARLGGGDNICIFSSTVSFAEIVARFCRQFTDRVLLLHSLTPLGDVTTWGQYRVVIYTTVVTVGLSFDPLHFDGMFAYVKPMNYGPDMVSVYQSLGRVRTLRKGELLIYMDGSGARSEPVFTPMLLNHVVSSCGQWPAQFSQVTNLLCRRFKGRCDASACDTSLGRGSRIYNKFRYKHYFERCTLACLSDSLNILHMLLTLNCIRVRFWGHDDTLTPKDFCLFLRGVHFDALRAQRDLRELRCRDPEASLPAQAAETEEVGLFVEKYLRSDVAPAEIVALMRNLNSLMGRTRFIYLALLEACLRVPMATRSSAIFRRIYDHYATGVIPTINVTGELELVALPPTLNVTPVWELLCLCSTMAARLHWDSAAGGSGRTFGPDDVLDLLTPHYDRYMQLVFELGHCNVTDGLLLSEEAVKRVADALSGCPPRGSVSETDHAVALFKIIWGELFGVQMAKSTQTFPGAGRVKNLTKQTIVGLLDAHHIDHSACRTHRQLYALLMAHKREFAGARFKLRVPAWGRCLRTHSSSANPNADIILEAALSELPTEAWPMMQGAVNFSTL

Target: HSV-1 origin-binding protein (OBP), encoded by the UL9 gene (herpes simplex virus 1 (HSV-1)) (UniProt P10193)
Assay: condition: only in complex with mini-OriS* (hairpin with a single-stranded 3′ dT10 tail); cryo-EM structure; OBP + mini-OriS* (hairpin with single-stranded 3' dT10 tail), monomer dataset; same reconstitution; 20° tilted stage; preferred particle orientation; both purified

**Q.** For “HSV-1 origin-binding protein (OBP), encoded by the UL9 gene (from UniProt P10193 1-851) (enzyme)”, which binding is on record?
**A.** The binding was “no binding”.
